# Literature values, collected in US4959182A, “Method and compositions providing enhanced chemiluminescence from 1,2-dioxetanes” (priority 1989, dated 1990).
# At least one compound was matched to its structure with a doubt left.
# Conditions: cited from earlier work
smiles,measurement,value
C1C2CC3CC1CC(C2)C31OOC12C1CC3CC(C1)CC2C3 (stereo not shown) [adamantylideneadamantane dioxetane],activation energy for decomposition,37 kcal/mol
